This is one part of the list. Further columns of the screen follow, without active or inactive calls. Most of these compounds were active or inconclusive in the main read-out, so they are no random draw. Words in brackets tell the shape of the fitted curve; partial curves, single points and poor fits give uncertain potencies.
Test: qHTS Assay for Lipid Storage Modulators in Drosophila S3 Cells;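 as to cell number change: cells counted by Cell Tracker Red CMTPX staining in the red channel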
Conditions: BODIPY lipid droplet fluorescence, 18-24 h; for cell number change: measured here: cell count max response, cells fed with added oleic acid
Procedure, shortened: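 Drosophila S3 cells loaded with oleic acid (400 uM, as added) and compounds at several concentrations; lipid droplets imaged by 488-nm laser-scanning cytometry, 500–530 nm intensity and object ratio to cell channel. Percent activity normalized to 20 uM Triacsin C.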

[1] = measured here: cell number channel AC50, cells fed with added oleic acid
[2] = measured here: lipid fluorescence (Fed channel) AC50, cells fed with added oleic acid

| Structure (SMILES) | AC50 [1] | AC50 [2] | cell number change [%] |
| --- | --- | --- | --- |
| C[C@@H]1C[C@H](Nc2ccccc2)c2ccccc2N1C(=O)c1cccnc1 | 580 nM [rising, single point] | 580 nM [rising, single point] | – |
| O=C1C=C(c2ccc(O)cc2)C[C@@H](c2ccc3c(c2)OCO3)C1 | – | 1160 nM [rising, single point] | -13.2 |
| O=C(O)c1ccccc1CSc1ncccc1C(=O)O | 11600 nM [falling, partial curve] | – | -32 |
| C/C(=N\Nc1ccc(S(N)(=O)=O)cc1[N+](=O)[O-])c1cccs1 | – | – | -2.63 |
| CC1CCC(C(C)C)C(OC(=O)COC(=O)c2cccn2C)C1 (configuration not stated) | – | 29100 nM [falling, single point] | -27.4 |
| COc1ccc(/C(C)=N/NC(=O)C2C3CCCCC32)c(OC)c1 (configuration not stated) | 16400 nM [rising, single point] | 14600 nM [rising, partial curve] | 39.5 |
| O=C(CCl)Nc1ccc(Sc2ccc(NC(=O)CCl)cc2)cc1 | – | 291 nM [falling, full curve] | -25.8 |
| O=S(=O)(c1cccc(COc2ccc(Cl)cc2Cl)c1)N1CCOCC1 | – | 32600 nM [falling, partial curve, poor fit] | -10.3 |
| CCC1Nc2ncnc(N3CCN(c4ccccc4)CC3)c2N(Cc2ccc(C)cc2)C1=O (configuration not stated) | 4.61 nM [falling, full curve, poor fit] | 5.17 nM [falling, full curve, poor fit] | -45.1 |
| CCc1ccc2oc(C(=O)NCC(c3ccc(OC)cc3)N3CCCCC3)c(C)c2c1 (configuration not stated) | – | 130 nM [falling, single point] | -2.64 |
| Cc1occc1C(=O)Nc1ccccc1C#N | – | 580 nM [falling, partial curve, poor fit] | 0.867 |
| COc1cc([N+](=O)[O-])ccc1NC(=O)CC(C)C | – | 6510 nM [rising, partial curve, poor fit] | – |
| CN(C(=O)CSc1nnc(-c2ccc(C(C)(C)C)cc2)n1C)C1CCS(=O)(=O)C1 (configuration not stated) | – | 8200 nM [falling, partial curve] | – |
| CC(NC(=O)/C(C#N)=C/c1cccs1)c1ccccc1 (configuration not stated) | – | – | -0.611 |
| Cc1cc(NC(=O)C2CCN(S(=O)(=O)c3c(C)noc3C)CC2)ccc1Br | – | 580 nM [falling, full curve, poor fit] | 3.04 |
| COc1ccc(N(Cc2nnc3n2CCCCC3)C(=O)Nc2ccccc2)cc1 | 820 nM [falling, full curve, poor fit] | 5.17 nM [falling, full curve, poor fit] | 1.72 |
| C=CCn1c(SC)nc2sc3c(c2c1=O)CCc1ccccc1-3 | 29100 nM [rising, single point] | 25900 nM [rising, partial curve] | 99.5 |
| O=C(Oc1cc(-c2ccccc2)no1)c1ccc(F)cc1 | 16400 nM [rising, partial curve, poor fit] | 4.61 nM [rising, full curve, poor fit] | 38.3 |
| CC(=O)Oc1ccc2nc(-c3ccc(Br)o3)oc(=O)c2c1 | – | – | -10.2 |

4 neighbouring compounds from above, quoted:

| Structure (SMILES) | AC50 [1] | AC50 [2] | cell number change [%] |
| --- | --- | --- | --- |
| O=C(CCl)Nc1ccc(Sc2ccc(NC(=O)CCl)cc2)cc1 | – | 291 nM [falling, full curve] | -25.8 |
| O=S(=O)(c1cccc(COc2ccc(Cl)cc2Cl)c1)N1CCOCC1 | – | 32600 nM [falling, partial curve, poor fit] | -10.3 |
| CCC1Nc2ncnc(N3CCN(c4ccccc4)CC3)c2N(Cc2ccc(C)cc2)C1=O (configuration not stated) | 4.61 nM [falling, full curve, poor fit] | 5.17 nM [falling, full curve, poor fit] | -45.1 |
| CCc1ccc2oc(C(=O)NCC(c3ccc(OC)cc3)N3CCCCC3)c(C)c2c1 (configuration not stated) | – | 130 nM [falling, single point] | -2.64 |

Continued.

| Structure (SMILES) | AC50 [1] | AC50 [2] | cell number change [%] |
| --- | --- | --- | --- |
| CCC(NC(=O)NC1=NCCS1)(C(F)(F)F)C(F)(F)F | – | 32600 nM [falling, single point] | 0.326 |
| CCOC(=O)C1=C(COC(=O)CCOc2cccc(C)c2)NC(=O)NC1C (configuration not stated) | – | 3260 nM [falling, single point] | -6.81 |
| COc1cccc(CC2(CO)CCN(S(=O)(=O)c3ccc(OC)cc3OC)CC2)c1 | – | – | 18.2 |
| COc1ccc(N=c2oc3ccc(OC)cc3cc2-c2nc3ccccc3[nH]2)cc1 | 29100 nM [falling, single point] | 6510 nM [falling, single point] | -60.6 |
| O=C1COc2ccc(S(=O)(=O)N3CCCCC3)cc2N1 | – | 29100 nM [rising, single point] | -17.7 |
| CCOc1ccc(S(=O)(=O)N2CCOCC2)cc1NC(=O)c1ccccc1F | 23100 nM [rising, partial curve, poor fit] | 5170 nM [rising, single point] | 60.3 |
| CCc1cc2c(=O)nc3n(c2s1)Cc1ccccc1/C3=C(/O)c1ccccc1Cl | – | 2910 nM [rising, partial curve] | 3.95 |
| CCc1nnc2n1N=C(c1cccc([N+](=O)[O-])c1)CS2 | – | 130 nM [rising, full curve, poor fit] | 15.6 |
| CCOC(=O)c1c(NC(=O)CS(=O)(=O)c2cn(CC)c3ccccc23)sc2c1CCCCC2 | – | 130 nM [rising, single point] | 17.4 |
| CCC1CCCCN1CC(=O)Nc1cc(OC)c(OC)cc1C#N (configuration not stated) | 411 nM [rising, partial curve, poor fit] | 920 nM [rising, full curve, poor fit] | 18.4 |
| O=C(Nc1ccc(F)cc1)N1CCN(c2ccc(F)cc2)CC1 | – | 29100 nM [rising, single point] | 5.79 |
| CCCCn1nc(C(=O)Nc2ccc(S(=O)(=O)Nc3ncccn3)cc2)c2ccccc2c1=O | 820 nM [falling, full curve, poor fit] | – | -19.4 |
| O=C(N/N=C/c1sc(=O)n(Cc2ccc(Br)cc2)c1Cl)c1ccco1 | 29100 nM [rising, single point] | 29100 nM [falling, single point] | 70.8 |
| Cc1cccc(C(=O)Nc2cccc(OCC(=O)O)c2)c1 | – | – | -25.3 |
| N#Cc1cccc2cccc(S(=O)(=O)N3CCOCC3)c12 | 820 nM [falling, full curve, poor fit] | 731 nM [falling, single point] | -8.51 |
| N#CC(C#N)=C1C=CC=CN1/C(=C\c1ccccc1)C(=O)c1cccs1 | 2310 nM [rising, partial curve] | 29100 nM [falling, single point] | -47 |
| Cc1cccc(-c2cc3nc4c(c(N5CCCC(O)C5)n3n2)CCC4)c1 (configuration not stated) | 1640 nM [rising, single point] | 2590 nM [rising, partial curve] | 29.7 |
| Cc1sc(NC(=O)CSc2nnc(COc3ccc(Cl)cc3)n2C)c(C#N)c1C | – | 29100 nM [falling, single point] | -3.86 |
| CCOc1cnn(-c2cc(Oc3ccc(C)cc3)ncn2)c(=O)c1Cl | – | 3260 nM [falling, partial curve] | 15.5 |

| Structure (SMILES) | AC50 [1] | AC50 [2] | cell number change [%] |
| --- | --- | --- | --- |
| CC(=O)c1cccc(NC(=O)c2sc3nc4n(c(=O)c3c2C)CCCC4)c1 | – | – | -8.66 |
| Cc1cc(C)c(S(=O)(=O)NCC(CCC(=O)O)C(F)(F)F)c(C)c1 (configuration not stated) | – | 29100 nM [rising, single point] | 25.2 |
| Cc1cc(C(F)F)n2ncc(C(=O)NCCc3ccc(Cl)cc3)c2n1 | 1160 nM [rising, partial curve] | 731 nM [rising, partial curve, poor fit] | – |
| Cc1cc2c(s1)c(C=O)c(C(=O)NCc1ccccc1F)n2C | – | – | 1.91 |
| N#CC1=C(N)Oc2c(oc(CO)cc2=O)C1c1ccsc1 (configuration not stated) | – | 6510 nM [rising, single point] | 2.73 |
| COc1ccc(-n2c(N)c(C(=O)NCc3ccco3)c3nc4ccccc4nc32)c(OC)c1 | 10.3 nM [rising, full curve, poor fit] | 580 nM [rising, single point] | 105 |
| COc1ccc(CNC(=O)COC(=O)C2CCC(C(C)(C)C)CC2)cc1 (configuration not stated) | – | 5170 nM [falling, partial curve, poor fit] | -0.4 |
| COc1ccccc1-c1cc(C(=O)NCCCn2ccnc2)no1 | – | 1640 nM [rising, partial curve] | – |
| Cc1sc2ccccc2[n+]1CC(=O)c1ccccc1 | – | 29100 nM [rising, single point] | 14.7 |
| Cc1cc(C(=O)NC2CCCc3c2cnn3-c2ccccc2F)nc(C)n1 (configuration not stated) | 2910 nM [falling, full curve, poor fit] | 2310 nM [falling, partial curve] | -28.3 |
| COc1ccc(C)cc1NC(=O)CSc1nnc(-c2ccc(Br)cc2)o1 | – | 29100 nM [falling, single point] | – |
| CCc1ccccc1NC(=O)CN1CCN(CC(=O)NCc2ccc(Cl)cc2)CC1 | – | 651 nM [rising, single point] | 1.67 |
| C/C(=N\Nc1nnc(-c2ccccc2)c(-c2ccccc2)n1)c1cccc([N+](=O)[O-])c1 | – | – | 14.5 |
| CC(Sc1nnc(-c2ccccc2F)n1N)C(=O)NCC1CCCO1 (configuration not stated) | 580 nM [rising, full curve] | 6510 nM [rising, single point] | 75 |
| CCOC(=O)c1cnn(-c2nc(-c3cccc(F)c3)cs2)c1C(F)(F)F | – | 29100 nM [rising, single point] | 1.94 |
| Cc1ccc(C2C(C(=O)c3cc4ccccc4o3)=C(O)C(=O)N2c2cc(C)on2)cc1 (configuration not stated) | 25900 nM [rising, single point] | 29100 nM [rising, single point] | 39.2 |
| Cn1c(=O)oc2cc(C(=O)c3ccccc3)ccc21 | 411 nM [rising, single point] | 651 nM [rising, single point] | 150 |
| CC(C(=O)NC(c1ccccc1)c1ccccc1)N1CCOCC1 (configuration not stated) | – | 5620 nM [falling, single point] | 9.21 |
